The target in assay [1] is anti-IBP4 antibody clone variant 7D6.G4. The experiment in a line: ECLIA, peptide competes with IBP4 for the antibody.
The target of assay [2] is anti-IBP4 antibody clone variant 5B3.G9. The experiment in a line: ECLIA, peptide competes with IBP4 for the antibody.
Assay [3] concerns the target anti-SHBG antibody clone variant 4G10.F8. The experiment in a line: ECLIA, single peptide competes with SHBG for the antibody.

No constants are given. Whether binding was seen depends on the method and setting. Some results given as binding are weak or reduced against the parent protein; the word gives no strength.

For the molecule RGKCWCVDRKTGVKL [G12], the binding result in assay [1] and in assay [2] was “binds” each time.
Consider KCWCVDRKTGVKLPG [H1], for which the binding result in assay [1] and in assay [2] was “binds” each time.
Regarding WCVDRKTGVKLPGGL [H2], the binding result in assay [1] and in assay [2] was “binds” each time.
Consider LRPVLPTQSAHDPP [1], for which, in assay [3], the binding entry was “binds”.
As to GQRGKCWCVDRKTGV [G11], the binding entry in assay [1] and in assay [2] was “binds” each time.

For the origin of these results see US20250101096A1.
